Literature values as cited in patent US20030235609A1, “Use of cholinesterase antagonists to treat insulin resistance” (priority 2002, published 2003).
At least one compound was matched to its structure with a doubt left.

Test system: insulin resistance induced by surgical denervation

## CC(=O)OCC[N+](C)(C)C [acetylcholine]
2.5 μg/kg/min directly into the portal vein
  Reversal of insulin resistance induced by surgical denervation, intraportal infusion: complete reversal
Same dose (2.5 μg/kg/min) intravenously
  Reversal of insulin resistance induced by surgical denervation, intravenous administration: no reversal
